Test results taken from article doi:10.1101/2020.02.14.949289.
These are yes or no findings as the source states them, for the method shown. In cells and extracts the contact can be indirect. Some binding calls cover weakened binding; strength is not graded here. Sequences can lack the tags named with a protein.

Target: T1, Flag-SPRTN^wt (UniProt Q9H040)
T1 sequence: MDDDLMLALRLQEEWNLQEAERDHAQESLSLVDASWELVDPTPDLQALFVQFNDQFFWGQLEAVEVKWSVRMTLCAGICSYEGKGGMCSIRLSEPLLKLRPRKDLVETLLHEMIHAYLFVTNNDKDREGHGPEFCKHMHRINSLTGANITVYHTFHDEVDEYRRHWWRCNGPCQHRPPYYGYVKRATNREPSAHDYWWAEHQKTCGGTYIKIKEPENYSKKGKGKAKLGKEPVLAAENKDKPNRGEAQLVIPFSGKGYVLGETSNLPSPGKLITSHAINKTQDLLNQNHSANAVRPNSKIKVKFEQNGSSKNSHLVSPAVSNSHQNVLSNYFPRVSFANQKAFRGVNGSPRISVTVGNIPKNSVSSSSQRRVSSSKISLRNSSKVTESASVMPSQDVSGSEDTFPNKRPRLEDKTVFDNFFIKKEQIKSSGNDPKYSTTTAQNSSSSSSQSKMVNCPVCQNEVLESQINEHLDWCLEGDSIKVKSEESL
Assay: co-IP

## ATPase p97 (from UniProt P55072 1-806)
  binding: binds
